Residue numbers refer to the chain shown, from its start. No constants are given. Whether binding was seen depends on the method and setting. Some results given as binding are weak or reduced against the parent protein; the word gives no strength.
B1: mab042xhIgG1TM (clone 77B9A3), mouse-human chimeric anti-CD73 antibody (antibody, V domains shown)
VH: QVQLQQSGAGLVKPGASVKLSCKASGYTFTNYWMHWVKQRPGQGLEWIGMIHPNSGSTNNNEKFKNKATLTVDKSSNTAYMQLSSLTSEDSAVYYCARFFFGGYPHYYALDYWGQGTSVTVSS
VL: DIVMTQSQKFMSTTVGDRVSITCKASQNVGTAVAWYQQKPGQSPKLLIYSASDRYTGVPDRLTGSGSGTDFTLTISNVQSEDLADYFCQQYSSFPLFTFGSGTKLVIQ
notes: also called mAb042 chimeric antibody
B2: mab044xhIgG1TM (clone 80H7D6), mouse-human chimeric anti-CD73 antibody (antibody, V domains shown)
VH: EVKLVESGGGLVQPGGSLRLSCAASGFTFTDYYMSWVRQPPGKALEWLGFIRNKADGSTTEYSASVKGRFTISRDNSQSILYLQMNALRPEDSATYYCTRSPIYFDNWYFDVWGTGTTVTVSS
VL: DIVMSQSPSSLAVSVGEKVTMTCKSSQSLLYSNNQKNYLAWYQQKPGQSPKLLIYWASTRESGVPDRFTGSGSGTDFTLTLSSVKAEDLAVYYCQQYYSYPFTFGSGTKLEIK
notes: also called mAb044 chimeric antibody
B3: mab065xhIgG1TM (clone 125A4E10), mouse-human chimeric anti-CD73 antibody (antibody, V domains shown)
VH: EVQLQQSGPELVKPGASVKISCKASGYTFTDYYMNWVKQSHGKSLEWIGNINPNNGDTNYNQKFKGKATLTVDKSSSTASMELRSLTSEDSAVYYCANSGYYYFDYWGQGTTLTVSS
VL: DIVMTQSPSSLTVTAGEKVTMSCKSSQSLLNSGNQKNYLTWYQQKPGQPPKVLIYWASTRESGVPDRFTGSGSGTDFTLTISSVQAEDLAVYYCQNDYSYPPTFGGGTNLEIK
notes: also called mAb065 chimeric antibody
B4: mab032xhIgG1TM (clone 56F12H8), mouse-human chimeric anti-CD73 antibody (antibody, V domains shown)
VH: EVQLVESGGDLVKPGGSLKLSCAASGFTFSTHGMSWVRQTPDKRLEWVAIISSDRSDIDYTDNVKGRFTISRDNGKNTLYLQMSSLKSEDTAIYHCARHRGYDGFYYAMDYWGQGTSVTVSS
VL: DILMTQSPSSLTVTAGEKVTMSCRSSQSLLNSGNQKNYLTWYQQRPGRPPKLLIYWASTRISGVPDRFAGSGSGTDFTLTISIVQAEDLAVYYCQNDYSYPLTFGSGTKLELR
notes: also called mAb032 chimeric antibody
B5: mab038xhIgG1TM (clone 69C9E12), mouse-human chimeric anti-CD73 antibody (antibody, V domains shown)
VH: QVQLQQPGTELVNPGASVKLSCKASGYTFTSYWMHWVKQRPGQGLEWIGNINPSNGGTHYNEKFNNKATLTVDKSSSTAYMQLSSLTSEDSAVFYCARGDYAYDWYFTVWGTGTTVTVSS
VL: DIVLTQSPASLAVSLGQRAIISCKASQSVSFAGTGLMHWYQQKPGQQPKLLIYRVSNLEAGIPTRFSGSGSRTDFTLNIHPVEEDDAATYYCQQNREFPWTFGGGTKLEIK
notes: also called mAb038 chimeric antibody
B6: mab041xhIgG1TM (clone 71E10B3), mouse-human chimeric anti-CD73 antibody (antibody, V domains shown)
VH: QVQLQQPGTELVKPGASVKLSCKASGYTFTSYWMHWVKQRPGQGLEWIGNINPSNGGTNYNQKFKSKATLTVDKSSNTASMQLSSLTSEDSAVYYCARGDYGYDWYLDVWGTGTTVTVSS
VL: B5 VL with T34P, G35S, V55T, I62V, R72G
notes: also called mAb041 chimeric antibody
B7: mab036xhIgG1TM (clone 66H6C12), mouse-human chimeric anti-CD73 antibody (antibody, V domains shown)
VH: QVQLQQSGAEVVKPGASVKISCKASGYVFSSYWINWVKQRPGKGLEWIGKIFPGNGDTDYNGNFKGKATLTADKSSSTAYMQLSSLTSEDSAVYFCAGFADWGQGTLVTVSA
VL: DIQMTQSPSSLSASLGERVSLTCRASQDIGERLIWLQQEPDGTFKRLIYATSSLDSGVPKRFSGSSSGSDYSLTISRLESEDFVDYYCLQYASSPYTFGGGTKLEIK
notes: also called mAb036 chimeric antibody
B8: mab034xhIgG1TM (clone 60G1C8), mouse-human chimeric anti-CD73 antibody (antibody, V domains shown)
VH: DVQLQESGPGLVKPSQSLSLTCSVTGYSITSRYYWNWIRQFPGNKLEWMGYMTYDGTNNYNPSLTNRISITRDTSKNQFFLKLNSVTAEDTATYFCARGGWDPFDYWGQGTTLTVSS
VL: DIQMTQSPAALSASVGETVTITCRASDNIYSYLAWYQQKQGKCPQLLVKNAKTLAEGVPSRFSGSGSGTQFSLRINSLQPDDFGTYYCQHYYGTPLTFGAGTKLELK
notes: also called mAb034 chimeric antibody
B9: mab020xhIgG1TM (clone 24D6B4), mouse-human chimeric anti-CD73 antibody (antibody, V domains shown)
VH: EVQLQQSGPELVKPGASVKIPCKASGYTFTDYNMDWVKQRHGKSLEWIGDINPNNGGTVYNQKFKGKATLTVDKSSNTAYMELRSLTSEDTAVYYCARISGTGYWYFDVWGTGTTVTVSS
VL: DIQMTQSPASLSVSVGETVTITCRASENIYSNLAWYQQKQGKSPQLLVYGATNLADGVPSRFSGSDSGTQYSLKINSLQSEDFGSYYCQHFWGTPWTFGGGTKLEIK
notes: also called mAb020 chimeric antibody
B10: mab030xhIgG1TM (clone 42A5A7), mouse-human chimeric anti-CD73 antibody (antibody, V domains shown)
VH: DIQLQESGPGLVKPSQSLSLTCSVTGYSITSRYYWNWIRQFPGNKLEWMGYITYDDNNNYNPSLKNRISITRDTSKNQFFLKLNSVTPEDTATYYCARGGWDPFLYWGQGTLVTVSA
VL: DIQMTQSPASLSASVGETVTITCRASDNIYSYLAWYQQKQGKSLQLLVDSAKNLGEGVPSRFSGSGSGTQFYLKINSLQPEDFGVYYCQHYYGTPFTFGGGTKLELK
notes: also called mAb030 chimeric antibody
B11: mAb042 (clone 77B9A3), murine anti-CD73 antibody (antibody, V domains shown)
VH: B1 VH
VL: B1 VL
notes: Purified from hybridoma supernatant
B12: mAb044 (clone 80H7D6), murine anti-CD73 antibody (antibody, V domains shown)
VH: B2 VH
VL: B2 VL
notes: as for B11
B13: mAb065 (clone 125A4E10), murine anti-CD73 antibody (antibody, V domains shown)
VH: B3 VH
VL: B3 VL
notes: as for B11
B14: mAb032 (clone 56F12H8), murine anti-CD73 antibody (antibody, V domains shown)
VH: B4 VH
VL: B4 VL
notes: as for B11
B15: mAb038 (clone 69C9E12), murine anti-CD73 antibody (antibody, V domains shown)
VH: B5 VH
VL: B5 VL
notes: as for B11
B16: mAb041 (clone 71E10B3), murine anti-CD73 antibody (antibody, V domains shown)
VH: B6 VH
VL: B5 VL with T34P, G35S, V55T, I62V, R72G
notes: as for B11
B17: mAb036 (clone 66H6C12), murine anti-CD73 antibody (antibody, V domains shown)
VH: B7 VH
VL: B7 VL
notes: as for B11
B18: mAb034 (clone 60G1C8), murine anti-CD73 antibody (antibody, V domains shown)
VH: B8 VH
VL: B8 VL
notes: as for B11
B19: mAb020 (clone 24D6B4), murine anti-CD73 antibody (antibody, V domains shown)
VH: B9 VH
VL: B9 VL
notes: as for B11
B20: mAb030 (clone 42A5A7), murine anti-CD73 antibody (antibody, V domains shown)
VH: B10 VH
VL: B10 VL
notes: Purified from hybridoma supernatant; also called antibody 030

Target: cynomolgus monkey CD73 (on transfected CHOK1 cells) (cynomolgus monkey)
Experiment: FACS on CHOK1-cCD73 cells, chimeric antibody

binding | Binder
binds | B1
binds | B2
binds | B3
binds | B4
binds | B5
binds | B6
binds | B7
binds | B8
binds | B9
binds | B10

Target: cynomolgus monkey CD73 (on transfected CHOK1 cells) (cynomolgus monkey)
Experiment: FACS on CHOK1-cCD73 cells

binding | Binder
binds | B11
binds | B12
binds | B13
binds | B14
binds | B15
binds | B16
binds | B17
binds | B18
binds | B19
binds | B20
